Measured values: PMC6827371
No constants are given. Whether binding was seen depends on the method and setting. Binding seen in cells or lysates may run through a third protein. A yes stands for co-enrichment or nearness to the bait. Other partners may have been found. No binding means not detected with the bait. Tags and fused reporters may be left off the sequences shown.

T1: GFP-Vas^WT (Drosophila melanogaster), P09052
T1 chain: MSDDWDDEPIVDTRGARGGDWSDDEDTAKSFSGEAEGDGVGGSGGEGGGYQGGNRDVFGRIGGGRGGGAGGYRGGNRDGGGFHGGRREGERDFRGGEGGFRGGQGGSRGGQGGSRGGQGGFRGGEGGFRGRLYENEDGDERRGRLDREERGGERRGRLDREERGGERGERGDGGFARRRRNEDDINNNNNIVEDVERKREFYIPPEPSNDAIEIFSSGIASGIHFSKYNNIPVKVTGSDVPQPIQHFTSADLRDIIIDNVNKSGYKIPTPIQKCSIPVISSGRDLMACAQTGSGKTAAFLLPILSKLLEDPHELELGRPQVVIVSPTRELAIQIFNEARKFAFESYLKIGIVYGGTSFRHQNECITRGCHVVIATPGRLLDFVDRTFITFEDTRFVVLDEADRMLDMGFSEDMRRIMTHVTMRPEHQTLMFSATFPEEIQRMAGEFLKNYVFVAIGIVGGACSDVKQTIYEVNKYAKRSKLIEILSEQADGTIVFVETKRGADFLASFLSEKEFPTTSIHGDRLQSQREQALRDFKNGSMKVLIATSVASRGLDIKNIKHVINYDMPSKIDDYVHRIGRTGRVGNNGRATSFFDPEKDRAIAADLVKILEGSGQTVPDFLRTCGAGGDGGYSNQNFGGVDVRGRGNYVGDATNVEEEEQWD

T2: GFP-Vas^DQAD (Drosophila melanogaster) (UniProt P09052)
T2 sequence: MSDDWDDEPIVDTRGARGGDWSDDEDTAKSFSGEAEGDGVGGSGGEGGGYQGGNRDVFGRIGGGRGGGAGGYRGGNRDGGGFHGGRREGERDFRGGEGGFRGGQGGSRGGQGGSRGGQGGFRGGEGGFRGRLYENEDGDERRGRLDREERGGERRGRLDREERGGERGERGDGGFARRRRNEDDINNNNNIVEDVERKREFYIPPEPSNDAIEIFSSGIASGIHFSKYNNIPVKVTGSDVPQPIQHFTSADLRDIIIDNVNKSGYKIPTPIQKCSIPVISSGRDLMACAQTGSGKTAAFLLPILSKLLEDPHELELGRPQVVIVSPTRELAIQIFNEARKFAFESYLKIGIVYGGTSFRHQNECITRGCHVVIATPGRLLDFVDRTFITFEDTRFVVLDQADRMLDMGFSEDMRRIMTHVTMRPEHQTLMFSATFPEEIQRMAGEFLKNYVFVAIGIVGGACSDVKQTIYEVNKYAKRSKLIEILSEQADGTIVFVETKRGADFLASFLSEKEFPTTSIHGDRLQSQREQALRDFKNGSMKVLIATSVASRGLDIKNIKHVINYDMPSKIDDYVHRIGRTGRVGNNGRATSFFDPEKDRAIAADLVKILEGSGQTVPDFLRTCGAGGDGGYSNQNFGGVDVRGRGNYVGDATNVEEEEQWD


How the values were obtained:
[1] = target: T1, GFP-Vas^WT (Drosophila melanogaster), …; test: affinity purification with mass spectrometry; GFP-trap magnetic agarose beads on 20 mg ovarian protein lysate, 4° for 1 hr; washes up to 1 M NaCl, no cross-linking reagent; GFP-expressing flies as negative control; two biological replicates; conditions: remark: other sources report otherwise
[2] = target: T2, GFP-Vas^DQAD (Drosophila melanogaster); test: as above

binding [1]	binding [2]	Binder
no binding	–	Ago3, Q7PLK0 1-867 (protein) MSGRGNLLSLFNKNAGNMGKSISSKDHEIDSGLDFNNSESSGERLLSSHNIETDLITTLQHVNISVGRGRARLIDTLKTDDHTSNQFITSESKENITKKTKGPESEAIASENGLFFPDLIYGSKGSSVNIYCNYLKLTTDESKGVFNYEVRFFPPIDSVHLRIKYLNDHKDKLGGTKTFDGNTLYLPILLPNKMTVFISKAEDVELQIRILYKKKEEMRNCTQLYNILFDRVMKVLNYVKFDRKQFDPSRPKIIPLAKLEVWPGYVTAVDEYKGGLMLCCDVSHRILCQKTVLEMLVDLYQQNVEHYQESARKMLVGNIVLTRYNNRTYKINDICFDQNPTCQFEIKTGCTSYVEYYKQYHNINIKDVNQPLIYSIKKSRGIPAERENLQFCLIPELCYLTGLRDEVRSDNKLMREIATFTRVSPNQRQMALNKFYENVSNTPAAQEILNSWGLSLTNNSNKISGRQMDIEQIYFSKISVSAGRSAEFSKHAVTNEMLKVVHLSKWIIIHLRNYRQAATSLLDNMKQACESLGMNISNPTMISLDHDRIDAYIQALRRNITMNTQMVVCICHNRRDDRYAAIKKICCSEIPIPSQVINAKTLQNDLKIRSVVQKIVLQMNCKLGGSLWTVKIPFKNVMICGIDSYHDPSNRGNSVAAFVASINSSYSQWYSKAVVQTKREEIVNGLSASFEIALKMYRKRNGKLPTNIIIYRDGIGDGQLYTCLNYEIPQFEMVCGNRIKISYIVVQKRINTRIFSGSGIHLENPLPGTVVDQHITKSNMYDFFLVSQLVRQGTVTPTHYVVLRDDCNYGPDIIQKLSYKLCFLYYNWAGTVRIPACCMYAHKLAYLIGQSIQRDVAEALSEKLFYL
–	no binding	Ago3 (protein, UniProt Q7PLK0 1-867) MSGRGNLLSLFNKNAGNMGKSISSKDHEIDSGLDFNNSESSGERLLSSHNIETDLITTLQHVNISVGRGRARLIDTLKTDDHTSNQFITSESKENITKKTKGPESEAIASENGLFFPDLIYGSKGSSVNIYCNYLKLTTDESKGVFNYEVRFFPPIDSVHLRIKYLNDHKDKLGGTKTFDGNTLYLPILLPNKMTVFISKAEDVELQIRILYKKKEEMRNCTQLYNILFDRVMKVLNYVKFDRKQFDPSRPKIIPLAKLEVWPGYVTAVDEYKGGLMLCCDVSHRILCQKTVLEMLVDLYQQNVEHYQESARKMLVGNIVLTRYNNRTYKINDICFDQNPTCQFEIKTGCTSYVEYYKQYHNINIKDVNQPLIYSIKKSRGIPAERENLQFCLIPELCYLTGLRDEVRSDNKLMREIATFTRVSPNQRQMALNKFYENVSNTPAAQEILNSWGLSLTNNSNKISGRQMDIEQIYFSKISVSAGRSAEFSKHAVTNEMLKVVHLSKWIIIHLRNYRQAATSLLDNMKQACESLGMNISNPTMISLDHDRIDAYIQALRRNITMNTQMVVCICHNRRDDRYAAIKKICCSEIPIPSQVINAKTLQNDLKIRSVVQKIVLQMNCKLGGSLWTVKIPFKNVMICGIDSYHDPSNRGNSVAAFVASINSSYSQWYSKAVVQTKREEIVNGLSASFEIALKMYRKRNGKLPTNIIIYRDGIGDGQLYTCLNYEIPQFEMVCGNRIKISYIVVQKRINTRIFSGSGIHLENPLPGTVVDQHITKSNMYDFFLVSQLVRQGTVTPTHYVVLRDDCNYGPDIIQKLSYKLCFLYYNWAGTVRIPACCMYAHKLAYLIGQSIQRDVAEALSEKLFYL
